Here are results for three molecules from US20250034273A1.

The target of assay [1] is human CD3 (human). Briefly: Octet (BLI). (In BLI a coated tip is dipped into the sample, and binding shifts an interference pattern.)
Assay [2] concerns the target monkey CD3 (monkey). Briefly: Octet (BLI).
Assay [3] has as its target human CD3 (human). As to the kind of experiment: absorbance assay (Net absorbance, Abs 450) on 'Human CD3-mG2a'; one unprinted antibody concentration.
Assay [4] addresses monkey CD3 (monkey). Briefly: absorbance assay (Net absorbance, Abs 450) on 'Cynomolgus CD3'; one unprinted antibody concentration; calls it Octet binding analysis.
Assay [5] has as its target monkey CD3 (monkey). Briefly: absorbance assay (Net absorbance, Abs 450) on 'Cynomolgus CD3'; one unprinted antibody concentration.
The target of assay [6] is monkey CD3 (monkey). As to the kind of experiment: absorbance assay (Net absorbance, Abs 450) on 'Cynomolgus CD3'; antibody concentration not given.

No constants are given. Whether binding was seen depends on the method and setting. For some of these results: Binding can be weak; no strength is given.

B1: h8B5-h3G8v2, bispecific anti-Trop2 (h8B5) / anti-CD3 (h3G8 scFv V2, VL-VH with 3xGS linker) (bispecific antibody, human IgG1, kappa)
heavy: EVQLVESGGGLVQPGGSLRLSCAASGFTFSTYTMSWVRQTPAKGLVWVSTINSDGYNIYYSDSMKGRFTISRDNAKYTLYLQMNSLRAEDTAMYYCARCSYYSYDYFDYWGQGTLVTVSSASTKGPSVFPLAPSSKSTSGGTAALGCLVKDYFPEPVTVSWNSGALTSGVHTFPAVLQSSGLYSLSSVVTVPSSSLGTQTYICNVNHKPSNTKVDKRVEPKSCDKTHTCPPCPAPELLGGPSVFLFPPKPKDTLMISRTPEVTCVVVDVSQEDPEVQFNWYVDGVEVHNAKTKPREEQFNSTYRVVSVLTVLHQDWLNGKEYKCKVSNKGLPSSIEKTISKAKGQPREPQVYTLPPSQEEMTKNQVSLTCLVKGFYPSDIAVEWESNGQPENNYKTTPPVLDSDGSFFLYSRLTVDKSRWQEGNVFSCSVMHEALHNHYTQKSLSLSLGKPAGGGGSDIVMTQSPDSLAVSLGERATINCKSSQSLLNSRTRKNYLAWYQQKPGQPPKLLIYWASTRESGVPDRFSGSGSGTDFTLTISSLQAEDVAVYYCTQSFILRTFGQGTKVEIKGGGGSGGGGSGGGGSQVQLVQSGAEVKKPGASVKVSCKASGYTFTSYYMHWVRQAPGQGLEWMGWIYPENVNTNYAQKFQGRVTMTRDTSISTAYMELSRLRSDDTAVYYCARDSYGSYFFDYWGQGTLVTVSS
light: DIQMTQSPSSLSASVGDRVTITCRASENIDNYLAWYQQKQGKVPKLLIYAATNLADGMPSRFSGSGSGTDFTLTISSLQPEDVATYYCQHYYSNQLTFGQGTKLEIKRTVAAPSVFIFPPSDEQLKSGTASVVCLLNNFYPREAKVQWKVDNALQSGNSQESVTEQDSKDSTYSLSSTLTLSKADYEKHKVYACEVTHQGLSSPVTKSFNRGEC
For the molecule B1, the binding result with human CD3 (human) [1], in the assay with monkey CD3 (monkey) [2], with human CD3 (human) [3] and in the assay with monkey CD3 (monkey) [4] was “binds” in each case.

B2: h8B5-h3G8v3, bispecific anti-Trop2 (h8B5) / anti-CD3 (h3G8 scFv V3, VH-VL with 6xGS linker) (bispecific antibody, human IgG1, kappa)
heavy: EVQLVESGGGLVQPGGSLRLSCAASGFTFSTYTMSWVRQTPAKGLVWVSTINSDGYNIYYSDSMKGRFTISRDNAKYTLYLQMNSLRAEDTAMYYCARCSYYSYDYFDYWGQGTLVTVSSASTKGPSVFPLAPSSKSTSGGTAALGCLVKDYFPEPVTVSWNSGALTSGVHTFPAVLQSSGLYSLSSVVTVPSSSLGTQTYICNVNHKPSNTKVDKRVEPKSCDKTHTCPPCPAPELLGGPSVFLFPPKPKDTLMISRTPEVTCVVVDVSQEDPEVQFNWYVDGVEVHNAKTKPREEQFNSTYRVVSVLTVLHQDWLNGKEYKCKVSNKGLPSSIEKTISKAKGQPREPQVYTLPPSQEEMTKNQVSLTCLVKGFYPSDIAVEWESNGQPENNYKTTPPVLDSDGSFFLYSRLTVDKSRWQEGNVFSCSVMHEALHNHYTQKSLSLSLGKPAGGGGSQVQLVQSGAEVKKPGASVKVSCKASGYTFTSYYMHWVRQAPGQGLEWMGWIYPENVNTNYAQKFQGRVTMTRDTSISTAYMELSRLRSDDTAVYYCARDSYGSYFFDYWGQGTLVTVSSGGGGSGGGGSGGGGSGGGGSGGGGSGGGGSDIVMTQSPDSLAVSLGERATINCKSSQSLLNSRTRKNYLAWYQQKPGQPPKLLIYWASTRESGVPDRFSGSGSGTDFTLTISSLQAEDVAVYYCTQSFILRTFGQGTKVEIK
light: B1 light
For the molecule B2, the binding entry with human CD3 (human) [1], in the assay with monkey CD3 (monkey) [2], in the assay with monkey CD3 (monkey) [5] and in the assay with human CD3 (human) [3] was “binds” each time.

B3: ARB203-h3G8 v1 (bispecific antibody)
heavy: EVQLVESGGGLVQPGGSLRLSCAASGFTFSTYTMSWVRQTPAKGLVWVSTINSDGYNIYYSDSMKGRFTISRDNAKYTLYLQMNSLRAEDTAMYYCARCSYYSYDYFDYWGQGTLVTVSSASTKGPSVFPLAPSSKSTSGGTAALGCLVKDYFPEPVTVSWNSGALTSGVHTFPAVLQSSGLYSLSSVVTVPSSSLGTQTYICNVNHKPSNTKVDKRVEPKSCDKTHTCPPCPAPELLGGPSVFLFPPKPKDTLMISRTPEVTCVVVDVSQEDPEVQFNWYVDGVEVHNAKTKPREEQFNSTYRVVSVLTVLHQDWLNGKEYKCKVSNKGLPSSIEKTISKAKGQPREPQVYTLPPSQEEMTKNQVSLTCLVKGFYPSDIAVEWESNGQPENNYKTTPPVLDSDGSFFLYSRLTVDKSRWQEGNVFSCSVMHEALHNHYTQKSLSLSLGKPAGGGGSQVQLVQSGAEVKKPGASVKVSCKASGYTFTSYYMHWVRQAPGQGLEWMGWIYPENVNTNYAQKFQGRVTMTRDTSISTAYMELSRLRSDDTAVYYCARDSYGSYFFDYWGQGTLVTVSSGGGGSGGGGSGGGGSDIVMTQSPDSLAVSLGERATINCKSSQSLLNSRTRKNYLAWYQQKPGQPPKLLIYWASTRESGVPDRFSGSGSGTDFTLTISSLQAEDVAVYYCTQSFILRTFGQGTKVEIK
light: B1 light
For B3, the binding entry is recorded as “no binding” in the assay with monkey CD3 (monkey) [6] and “binds” in the assay with human CD3 (human) [3].
